This passage reports binding results from PMC4027211.

Chains of the proteins cited; added tags and fusions are not shown. Lines headed by an entry give the natural chain unless they say otherwise; changes in a name come on top.
UniProt Q05086: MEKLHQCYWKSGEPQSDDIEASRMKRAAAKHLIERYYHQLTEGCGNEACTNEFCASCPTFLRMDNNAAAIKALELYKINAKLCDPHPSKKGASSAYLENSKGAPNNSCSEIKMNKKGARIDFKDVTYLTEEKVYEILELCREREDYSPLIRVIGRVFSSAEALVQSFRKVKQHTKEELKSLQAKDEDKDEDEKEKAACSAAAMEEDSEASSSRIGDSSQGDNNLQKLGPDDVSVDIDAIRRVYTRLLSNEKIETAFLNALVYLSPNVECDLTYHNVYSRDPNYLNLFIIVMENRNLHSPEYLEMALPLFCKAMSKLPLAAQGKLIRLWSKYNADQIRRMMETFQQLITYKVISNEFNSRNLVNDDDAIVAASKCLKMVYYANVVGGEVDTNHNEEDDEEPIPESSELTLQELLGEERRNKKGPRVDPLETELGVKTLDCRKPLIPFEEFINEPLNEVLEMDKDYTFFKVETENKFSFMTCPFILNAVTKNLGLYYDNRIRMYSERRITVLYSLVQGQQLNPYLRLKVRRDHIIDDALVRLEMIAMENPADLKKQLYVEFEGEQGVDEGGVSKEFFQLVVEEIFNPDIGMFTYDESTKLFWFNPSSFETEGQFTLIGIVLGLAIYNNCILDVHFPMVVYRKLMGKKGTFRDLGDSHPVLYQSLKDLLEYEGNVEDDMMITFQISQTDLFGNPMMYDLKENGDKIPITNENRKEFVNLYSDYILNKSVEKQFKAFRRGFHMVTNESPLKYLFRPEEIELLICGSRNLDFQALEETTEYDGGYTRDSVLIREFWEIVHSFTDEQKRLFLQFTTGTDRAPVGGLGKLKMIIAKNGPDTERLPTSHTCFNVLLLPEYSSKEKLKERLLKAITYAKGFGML
UniProt Q9WTL8: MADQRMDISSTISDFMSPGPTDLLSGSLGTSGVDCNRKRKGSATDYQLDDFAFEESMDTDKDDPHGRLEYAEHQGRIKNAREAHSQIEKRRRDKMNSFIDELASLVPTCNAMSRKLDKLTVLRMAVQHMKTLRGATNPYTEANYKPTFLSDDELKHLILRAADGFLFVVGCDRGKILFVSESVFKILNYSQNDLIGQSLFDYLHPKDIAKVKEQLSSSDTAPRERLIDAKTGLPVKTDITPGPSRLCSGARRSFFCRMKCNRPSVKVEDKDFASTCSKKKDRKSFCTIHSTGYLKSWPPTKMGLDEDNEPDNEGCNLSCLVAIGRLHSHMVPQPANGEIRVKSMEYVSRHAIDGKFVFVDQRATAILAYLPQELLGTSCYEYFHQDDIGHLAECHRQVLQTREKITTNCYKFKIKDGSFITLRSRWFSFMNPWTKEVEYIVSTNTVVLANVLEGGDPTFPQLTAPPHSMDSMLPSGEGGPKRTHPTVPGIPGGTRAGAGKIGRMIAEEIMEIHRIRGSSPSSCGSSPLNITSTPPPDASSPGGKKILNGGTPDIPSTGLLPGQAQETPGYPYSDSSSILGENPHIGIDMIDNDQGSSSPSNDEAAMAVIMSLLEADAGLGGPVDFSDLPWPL
UniProt O00327: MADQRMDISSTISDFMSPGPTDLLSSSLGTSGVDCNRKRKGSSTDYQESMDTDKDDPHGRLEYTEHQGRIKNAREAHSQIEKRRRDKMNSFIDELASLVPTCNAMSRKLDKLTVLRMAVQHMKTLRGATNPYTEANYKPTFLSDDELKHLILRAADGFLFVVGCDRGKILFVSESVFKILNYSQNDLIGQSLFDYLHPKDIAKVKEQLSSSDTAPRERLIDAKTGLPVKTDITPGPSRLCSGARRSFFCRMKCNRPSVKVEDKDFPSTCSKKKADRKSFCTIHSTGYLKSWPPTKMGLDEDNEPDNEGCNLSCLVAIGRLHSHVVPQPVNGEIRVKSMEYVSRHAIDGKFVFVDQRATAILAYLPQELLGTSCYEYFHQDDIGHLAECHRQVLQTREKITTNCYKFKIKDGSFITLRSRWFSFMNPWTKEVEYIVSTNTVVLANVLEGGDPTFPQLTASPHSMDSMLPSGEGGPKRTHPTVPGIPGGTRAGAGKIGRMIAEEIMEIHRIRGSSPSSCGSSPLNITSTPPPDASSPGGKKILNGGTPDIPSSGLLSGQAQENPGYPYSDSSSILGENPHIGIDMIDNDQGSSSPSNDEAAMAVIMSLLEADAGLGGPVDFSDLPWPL

Test [1] addresses endogenous UBE3A (human (endogenous in SW1353)) (UniProt Q05086). Description: co-IP; endogenous proteins in unsynchronized SW1353 human chondrocytes in the presence of MG132; IP with anti-UBE3A antibody, BMAL1 detected by blot.
The target of test [2] is V5-BMAL1 (brain and muscle Arnt-like 1) (UniProt Q9WTL8). Description: co-IP; HEK 293T cells transfected with V5-BMAL1 and Myc-UBE3A; with or without E6/E7, with or without MG132 (5 μM); IP with anti-V5 antibody at 4°C overnight, Protein G Dynabeads, lysis buffer 150-mM NaCl, 20-mM Tris-HCl pH7.5, 10% glycerol, 1% Triton X-100; myc-UBE3A detected by blot.
Test [3] addresses HA-UBE3A (ubiquitin protein ligase E3A) (UniProt Q05086). Nature of the test: co-IP; HEK 293T cells transfected with HA-UBE3A and V5-BMAL1, in the presence of E6/E7; IP with anti-HA antibody at 4°C overnight, Protein G Dynabeads, lysis buffer 150-mM NaCl, 20-mM Tris-HCl pH7.5, 10% glycerol, 1% Triton X-100; V5-BMAL1 detected by anti-V5 blot.

No constants are given. Whether binding was seen depends on the method and setting. In cells and extracts the contact can be indirect. Some results given as binding are weak or reduced against the parent protein; the word gives no strength.

As for “endogenous BMAL1 (from UniProt O00327 1-626)”, the binding result in test [1] was “binds”.

As for “Myc-UBE3A (ubiquitin protein ligase E3A) (from UniProt Q05086 1-875) (enzyme)”, in test [2], the binding result is “binds”.

“V5-BMAL1 (brain and muscle Arnt-like 1) (from UniProt Q9WTL8 1-632)”: the binding entry in test [3] was “binds”.
